# Experimental data from PubChem BioAssay AID1508600 (Functional Genomics Laboratory (NCATS/FGL), 2020).
# Screen size: about 53,000 sequences; about 3,700 (7%) were called active.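 How the source made its calls: active means gene knockdowns whose robust z-score for IL-1 alpha signal is at least 2 or at most -2, so actives lie on both sides; inactive means the rest.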 Some of the results follow.
# Assay: Components of the Cytosolic LPS Sensing Pathway: Gene Identification via Genome-wide siRNA Screen;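 further: robust z of the log signal after scaling to non-targeting control siRNA wells of the plate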
# Conditions: RAW264.7 macrophages, IL-1a HTRF, actives lie on both sides, screened at 100 nM (by protocol), cells primed 5 h with Pam3CSK4 first
# Summary of the method: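 IL-1a HTRF of supernatants after 24 hour LipidA transfection of Pam3CSK4-primed (5 hours) RAW264.7 cells, 48h post-siRNA transfection (100 nM). Scores: percent of plate negative-control median, then log-based robust z-score.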
row,Sequence,z-score
1,GGUUGAAUCAGGCAUCAUUTT against Sypl,inactive: 0.617
2,GGGCUACACAAGUCCCUAUTT against Hoxd13,inactive: 0.739
3,GCGGCAUACUCCAACUUCUTT against Colgalt1,inactive: -0.295
4,GGAGAAGAAACAAAAACCUTT against Ktn1,inactive: -1.16
5,GGGAUUAAAGAUUUGGUUGTT against Efcab1,inactive: 0.999
6,GGUUGUUUAGCCAGUGCACTT against Spryd7,inactive: -0.496
7,GGACACUAUACAAAUUUCGTT against Fank1,inactive: -0.109
8,CCUACACUAAAAUUCACCATT against Muc15,inactive: -0.549
9,GGAACCAUGGCAGUGCAUCTT against Dlk1,inactive: -1.79
10,UAGGAGAUAUCUGCUACCGTT against Fbxw16,active: -2.53
11,GGCCAGUGAGCAGCAUUAUTT against Krt222,inactive: 0.787
12,CGUGGAUAAAAUUAAGUAGTT against Pdlim2,inactive: 0.733
13,GGGUUCUCAAGGUUGCAUUTT against Frs3,inactive: 1.15
14,CGUAGAUGUCCUAGAAUUGTT against Rundc1,inactive: 1.37
15,GCUUCUUCAAGAGUAUAAUTT against Gad2,inactive: -0.443
16,CCCAACAUUAUCUUGGACCTT against Mrgpra8,inactive: -0.26
17,CGGUGCAUACUCAAUAAACTT against Spag11a,inactive: -0.607
18,GGAGCUUCUGGAGUAUUAUTT against Ccdc77,inactive: 0.0652
19,GGCUGUAUCUCAUCUUUGATT against Cdk1,inactive: -0.607
20,GCACAUCUUGGACCGUUUCTT against Lhx3,inactive: 0.851
21,GCGUGUUUGCCUCGGCAAATT against Ahdc1,inactive: 0.61
22,CCUGUUGAGUGACCUAAGGTT against Ap5b1,inactive: 1.28

row,Sequence,z-score
1,CCGUAAAACCAUGAAGAAGTT against Pdzd4,inactive: 0.33
2,CCUAGUUUGGUGAUGAUGUTT against Atg10,inactive: -0.262
3,CGGUAAUGGGUAUCCUUUGTT against Olfr620,inactive: 0.481
4,GGAAGCAACUUGGAAUUUGTT against Ctnna3,inactive: 0.886
5,GGUUUUGGUAUAGAUACUUTT against Phxr4,inactive: -0.548
6,GGGCAUAACGUGUUCACAUTT against Sptssb,inactive: -0.31
7,GGUCCACAUAUCUGACUGATT against Calm5,inactive: 0.153
8,GCUCAGACAGCUUCGACAUTT against Ano7,inactive: -0.842
9,GGAGAGUGCUCAAUAAGACTT against Mtfr1,inactive: 0.46
10,GCCUAGAAAGUUCUAUGUUTT against Fcho1,inactive: -0.632
11,CCAUAUAUCUGAUCACACUTT against Olfr832,inactive: 1.59
12,CGAUUGAUGAAUCUGGUUCTT against Racgap1,inactive: -0.31
13,CGACACCAGUCUCAAUGAATT against Olfr368,inactive: -0.158
14,CCUGAUGGAUGAUGAAUCATT against Trap1a,inactive: -1.42
15,CCUCAAGUCUGUGAAGAAATT against Tnni1,inactive: 1.11
16,GGAUUCUGGGCUGAAUGGGTT against Pcdh18,inactive: -0.491
17,GAUCAUCACAGAGGUCCAGTT against Fabp6,inactive: 0.308
18,GCUAGAAGCCUGACAUUUUTT against Tbca,inactive: -0.538
19,GGAUGAACUCAUGAGAGCCTT against Cyb5r4,inactive: -0.323
20,GGAGCCUCUAGGAAACAAATT against Slc28a3,inactive: 0.309
21,GCCACUUAGAAAACCGUGUTT against Cox7a1,inactive: -0.0911
22,CCGAAAUAAGGCUAGCUCATT against Rfx6,inactive: -0.282

row,Sequence,z-score
1,CCUAGCAUGUUUCUUGCUATT against Rnft2,inactive: 0.46
2,GGAAGAGUAAAGGAGAUUUTT against Spop,inactive: -0.548
3,GGCCUCAAACUGAAUAUUATT against Serpina7,inactive: 0.472
4,GGAAGAUGAAGAUGAGAAUTT against Igbp1b,inactive: -1.24
5,GGAACAGGGCAGUAAGACCTT against Dhcr24,inactive: 0.738
6,GCAGGCCUAAGCCCAUUGATT against Vmn1r46,inactive: 0.951
7,GGCCCUCAAAAAUCACGAGTT against Ehd1,inactive: 1.11
8,GGCUGCAUGGUACAGAUCUTT against Olfr463,active: -2.33
9,CCGGUACCUCAAUUCAACUTT against Skida1,inactive: -0.686
10,GCUCGAUUUUAAGCAUAUGTT against Snx33,inactive: 1.77
11,GGAUUCUGACAAAACUGGATT against Nt5c1b,inactive: 0.809
12,GGACACAAAAGUUCACAUUTT against Smpx,inactive: -0.421
13,GCGAUGUGGCCUAAAUAGGTT against Igfals,inactive: 0.665
14,GGACAGUCAUUACCAAAAATT against Topors,inactive: -1.97
15,GGAAGAGAGAGACAAGGAUTT against Dap,inactive: 1.38
16,CCUUUUUCUGGAUUGGAAUTT against Klrd1,inactive: -0.00525
17,GCAUAGUGAACACAAACGGTT against Rgs14,inactive: -0.537
18,GCUGGUUAUUCUCUUAUAGTT against Cavin2,inactive: 1.97
19,GGUGAUAUAUCCAUCAAAATT against Rbm43,inactive: 1.23
20,GGGAGAAAAAGGCAUUUUUTT against Them5,inactive: 0.46
21,GGUCUGUGGACUGAACUUATT against Bcl2l11,active: -2.6
22,GGACAAGGCCUAUAGACCUTT against Vmn1r70,inactive: 1

# Retrieved one by one from above:
row,Sequence,z-score
3,GGCCUCAAACUGAAUAUUATT against Serpina7,inactive: 0.472
8,GGCUGCAUGGUACAGAUCUTT against Olfr463,active: -2.33
7,GGCCCUCAAAAAUCACGAGTT against Ehd1,inactive: 1.11
15,GGAAGAGAGAGACAAGGAUTT against Dap,inactive: 1.38
2,GGAAGAGUAAAGGAGAUUUTT against Spop,inactive: -0.548

# Following part.

row,Sequence,z-score
1,GUACAACCACUAUGGCGACTT against Mfap2,inactive: -0.155
2,GGUUUAAGCACUACAGUGATT against Bod1,inactive: 0.254
3,GGUAAAGAAGAUCGACAGCTT against Adrb1,inactive: -0.785
4,GCAUAUUCUUCCAACUUCCTT against Sp8,inactive: -1.8
5,GCUGUUCCACAUUGAAGUGTT against Pcdh18,active: 2.84
6,CACGGUAUAGCAGCUAUUATT against Mbtps2,inactive: -1.46
7,GGAGUCUAAACUGACAAACTT against 1700088E04Rik,inactive: -0.6
8,GCUAGAGAAAAAACAGCCATT against Csf2rb,inactive: -0.75
9,GCUGGAAGAUCUGCUCAACTT against Eno4,inactive: 0.486
10,GGCUGUAGUUGGCUAACACTT against Slc25a28,inactive: -0.103
11,GGUUUACAAGUUUCUAAGCTT against Ube2o,inactive: 0.614
12,GGACCUCAUCUAUGCAUGUTT against Olfr1394,inactive: -0.0256
13,GGUCAUUCAGCUGGAAGAUTT against Zfp143,inactive: -1.07
14,GGACUAACAACUCUGGUCUTT against Mea1,inactive: -0.199
15,GCGUAUCCCAGAUAUCCGATT against Fam180a,inactive: 0.951
16,GGAUGAUGCCGAUUACUUCTT against Vpreb3,inactive: -0.352
17,GGAUGUCAAACUCGCCCUGTT against Olfr61,inactive: 0.708
18,UUGCCUCUUCCUACGCCUUTT against Cers1,inactive: -1.14
19,CCGACAGUCUUGAUAUUAATT against Cbx5,inactive: -0.248
20,GGCCUUUGCACGUGGAUUGTT against Zfp420,inactive: -0.221
21,GGUUUUGUCACCAUAGCCATT against 3110040N11Rik,inactive: -0.762
22,GGAUGAAUCUGAAGAUUCCTT against Nol3,inactive: 0.113

row,Sequence,z-score
1,CCUCCCAAUUCCAUUGGAATT against Serpinb3a,inactive: 1.02
2,CGGGUGUGCCGUGUUUGUATT against Tmem192,inactive: 1.67
3,GGAGUGCACUGCAUCAUGUTT against Flywch2,inactive: -0.289
4,CCUUUUCCCGCUCUUAAAATT against Olfr1260,inactive: 0.616
5,GGACUUACUUCCCAUUUCGTT against Gdpd3,inactive: 0.297
6,CGAGCAAUGUUAAAAAUGATT against Slain2,inactive: -0.993
7,GGCAAUUACUUCAUUGAUCTT against Kctd6,inactive: 0.0121
8,GGAGGAACUCUGGCAAGCUTT against Zswim6,inactive: 1.82
9,GCUUCUGAAUAUCAGACGGTT against Tmem150c,inactive: -0.202
10,CGGAGAGUAUGAGAGUUCCTT against Kank3,inactive: 0.42
11,GGUGCCAUGGCUAUCUGUGTT against Tonsl,inactive: -0.294
12,GGUGAACCUGUCAAACCUUTT against Hspbap1,inactive: -0.504
13,GCCAGAUAGACAAUGAAGUTT against Ctif,inactive: -0.288
14,GGCUUACCGUACCUUCCAATT against Cntf,inactive: 1.02
15,GGAAAUACCGGAACCAGAATT against Jmjd6,inactive: 0.519
16,GGAGAACAGAUAAAUAGUGTT against Msh2,inactive: -0.218
17,GGGAGAGGUAUGUCUGUAATT against Il15ra,inactive: -0.615
18,GGAGUACAGCUGUGUAAUATT against Pcna,inactive: 0.0721
19,GCGAUUGAGAGGCUACACUTT against Pigb,inactive: 0.402
